The values below come from the supplement of paper PMC7877785.

± gives the uncertainty stated by the source. The uncertainty is large for many entries.

The series can be described thus: self-splicing fitness, log relative to wild type (ln ratio); higher = more splicing; Tetrahymena group I intron in knt gene, E. coli kanamycin selection, DiMSum; sequences stand for … in CUCUCU…GGAGGGAAAAGUUAUCAGGCAUGCACCUGGUAGCUAGUCUUUAAACCAAUAGAUUGCAUCGGUUUAAAAGGCAAGACCGUCAAAUUGCGGGAAAGGGGUCAACAGCCGUUCAGUACCAAGUCUCAGGGGAAACUUUGAGAUGGCCUUGCAAAGGGUAUGGUAAUAAGCUGACGGACAUGGUCCUAACCACGCAGCCAAGUCCUAAGUCAACAGAUCUUCUGUUGAUAUGGAUGCAGUUCACAGACUAAAUGUCGGUCGGGGAAGAUGUAUUCUUCUCAUAAGAUAUAGUCGGACCUCUCCUUAAUGGGAGCUAGCGGAUGAAGUGAUGCAACACUGGAGCCGCUGGGAACUAAUUUGUAUGCGAAAGUAUAUUGAUUAGUUUUGGAGUACUCGUGGUCG
In a few lines:
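A randomised library covering all eight P1ex-region intron nucleotides was built with the intron in the knt kanamycin-resistance gene on pET-22b(+) and held in E. coli BL21(DE3). Cells were grown overnight at 37°C or 30°C on LB agar, with or without 25 μg/mL kanamycin, plus 100 μg/mL carbenicillin, 50 μM IPTG and 0.2% rhamnose, and pooled colonies were amplicon-sequenced on an Illumina HiSeq 2500. DiMSum fitness is the error-weighted combination of wild-type-normalised replicate fold changes, kanamycin versus none.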

As to CCAUAGCAAUAUUACGACCA, the “self-splicing fitness (ln)” value was -2.52 ± 0.46 (30 °C) and -2.29 ± 0.63 (37 °C). Turning to GGUGAGCAAUAUUACGGGGC, the “self-splicing fitness (ln)” value (30 °C) was -2.25 ± 0.56. Same read-out and setting: the value for UGGGAGCAAUAUUACGCUCG was -3.24 ± 0.54; that for CUUCAGCAAUAUUACGACAC was -3.5 ± 0.73. As for GAUGAGCAAUAUUACGAGCA, where the note is “37 °C”, the “self-splicing fitness (ln)” value is -2.08 ± 1.1. In the case of GGCUAGCAAUAUUACGAGGC, the “self-splicing fitness (ln)” value (37 °C) is -0.105 ± 0.56. Turning to UGGGAGCAAUAUUACGGCAU, the “self-splicing fitness (ln)” value (30 °C) was -3.97 ± 0.73.

Regarding CUGUAGCAAUAUUACGAGAG, the “self-splicing fitness (ln)” value (30 °C) is -3.1 ± 0.54 and the “self-splicing fitness (ln)” value (37 °C) is -2.48 ± 0.77.

As for UUGGAGCAAUAUUACGGAAC, under “37 °C”, the “self-splicing fitness (ln)” value was -2.38 ± 0.55.

For UGGAAGCAAUAUUACGCCCA, where the note is “30 °C”, the “self-splicing fitness (ln)” value is -0.787 ± 0.63.

In the case of UGUGAGCAAUAUUACGCAGC, the “self-splicing fitness (ln)” value (30 °C) was -3.62 ± 0.61 and the “self-splicing fitness (ln)” value (37 °C) was -1.77 ± 0.4. As to GGGUAGCAAUAUUACGUGGC, the “self-splicing fitness (ln)” value (30 °C) is -4.18 ± 0.51. For the sequence CUUUAGCAAUAUUACGCGAC, the “self-splicing fitness (ln)” value reads like this: (30 °C) -2.63 ± 0.51; (37 °C) -2.42 ± 0.62. In the case of CCUAAGCAAUAUUACGCAGA, the “self-splicing fitness (ln)” value (30 °C) is -3.91 ± 0.52. For CCUUAGCAAUAUUACGUCUC, the “self-splicing fitness (ln)” value (30 °C) was -3.16 ± 0.52.

For the sequence UGUCAGCAAUAUUACGUGAA, the “self-splicing fitness (ln)” value runs as follows: (30 °C) -0.122 ± 0.068; (37 °C) 0.427 ± 0.083. The corresponding values for GCGGAGCAAUAUUACGCAGG are -2.44 ± 0.78 and -1.56 ± 0.55. Consider CUCGAGCAAUAUUACGCCCA, for which the “self-splicing fitness (ln)” value was -3.56 ± 0.6 (30 °C) and -0.943 ± 0.53 (37 °C).

As for UUGGAGCAAUAUUACGUUUA, the “self-splicing fitness (ln)” value (37 °C) is -2.91 ± 0.61. As to UGUUAGCAAUAUUACGGAAC, the “self-splicing fitness (ln)” value runs as follows: (30 °C) -2.79 ± 1.2; (37 °C) -0.182 ± 0.73. Turning to CCAAAGCAAUAUUACGACUU, the “self-splicing fitness (ln)” value runs as follows: (30 °C) -3.77 ± 0.16; (37 °C) -3.01 ± 0.2. The corresponding values for GGAGAGCAAUAUUACGGUAA are -2.76 ± 0.58 and -2.97 ± 0.74. The corresponding values for GAAAAGCAAUAUUACGACCG are -0.942 ± 0.14 and -0.33 ± 0.17. GCCUAGCAAUAUUACGCCAU: the “self-splicing fitness (ln)” value (30 °C) was -3.33 ± 0.53. Turning to AAGGAGCAAUAUUACGCCAC, the “self-splicing fitness (ln)” value is, setting by setting: (30 °C) -3.23 ± 1; (37 °C) -2.66 ± 0.76.

As for UGCGAGCAAUAUUACGCUGG, the “self-splicing fitness (ln)” value (30 °C) is -2.62 ± 0.62 and the “self-splicing fitness (ln)” value (37 °C) was -2.66 ± 0.62. The corresponding values for UAGCAGCAAUAUUACGGUAC are -4.38 ± 0.72 and -3.41 ± 0.73. As to UUCGAGCAAUAUUACGCCAC, the “self-splicing fitness (ln)” value (30 °C) is -2.2 ± 0.84. Turning to UCGGAGCAAUAUUACGUGCU, for the setting “30 °C”, the “self-splicing fitness (ln)” value was -4.16 ± 0.72.

Consider CACUAGCAAUAUUACGAGCC, for which the “self-splicing fitness (ln)” value (30 °C) was -2.66 ± 0.54. Same read-out and setting: in the case of CAUUAGCAAUAUUACGGGAA it was -4.2 ± 0.52. AAUGAGCAAUAUUACGGGUC: the “self-splicing fitness (ln)” value (37 °C) is -2.9 ± 0.52. Take UAGUAGCAAUAUUACGGCAC: the “self-splicing fitness (ln)” value runs as follows: (30 °C) -3.9 ± 1; (37 °C) -2.4 ± 0.77.

On to GUCGAGCAAUAUUACGCUCC, for which the “self-splicing fitness (ln)” value (30 °C) is -2.72 ± 0.51 and the “self-splicing fitness (ln)” value (37 °C) was -0.64 ± 0.65. Take CCUUAGCAAUAUUACGUCGA: the “self-splicing fitness (ln)” value (30 °C) is -3.44 ± 0.52. As for CGGUAGCAAUAUUACGAAGC, the “self-splicing fitness (ln)” value (37 °C) is -2.04 ± 0.65. As to UGUGAGCAAUAUUACGGAUU, the “self-splicing fitness (ln)” value reads like this: (30 °C) -3.17 ± 0.54; (37 °C) -1.59 ± 0.34.

As to CGAGAGCAAUAUUACGUCAA, the “self-splicing fitness (ln)” value by setting is: (30 °C) -3.22 ± 0.21; (37 °C) -2.4 ± 0.27. Take CGUGAGCAAUAUUACGCCGU: the “self-splicing fitness (ln)” value (30 °C) was -2.34 ± 0.52. As to GCUGAGCAAUAUUACGGCCC, the “self-splicing fitness (ln)” value is -1.27 ± 1.4 (30 °C) and -2.32 ± 0.35 (37 °C). For GGGGAGCAAUAUUACGGUGC, the “self-splicing fitness (ln)” value (30 °C) was -3.06 ± 0.75. Regarding AAGAAGCAAUAUUACGCUUG, the “self-splicing fitness (ln)” value is -1.23 ± 0.11 (30 °C) and -0.951 ± 0.14 (37 °C).

As to CUCUAGCAAUAUUACGUCCA, the “self-splicing fitness (ln)” value (30 °C) is -3.88 ± 1.1.

Consider CUACAGCAAUAUUACGACCC, for which the “self-splicing fitness (ln)” value (30 °C) was -3.28 ± 0.55 and the “self-splicing fitness (ln)” value (37 °C) is -1.61 ± 0.52. On to UCCGAGCAAUAUUACGACCG, for which the “self-splicing fitness (ln)” value (37 °C) was -0.927 ± 1.2. As to GCGAAGCAAUAUUACGCCUU, the “self-splicing fitness (ln)” value (30 °C) was -4.18 ± 0.52. As to UAAGAGCAAUAUUACGGCCC, for the setting “37 °C”, the “self-splicing fitness (ln)” value was -1.78 ± 1.2.
